We go through 64 molecules from PubChem BioAssay AID493014 (National Center for Advancing Translational Sciences (NCATS), 2011).

The assay in a line: qHTS Assay to Find Inhibitors of Chronic Active B-Cell Receptor Signaling. To be noted: ABC-DLBCL IkBa-CBG/CBR reporter, luminescence ratio (green luciferase fused to IkBa over red control in TMD8 lymphoma cells), 4 h. The gist of the method:
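Cell line TMD8 (human ABC DLBCL), stably expressing tet-inducible CBG68-IkBa fusion and CBR; IMDM/0.5% FBS; cpd up to 46 uM; dox induction, 4 h, 37C/5% CO2; dual luminescence; green/red ratio; MG132 control.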
For orientation: qHTS replaces the single test concentration by a dilution series.

Where [1] appears, read: measured here: CBR red luminescence, cell number.
Where [2] appears, read: measured here: IkBa-CBG green luminescence.

The other results are listed elsewhere or left out. These are further read-outs of the screen, such as a control signal, another cell line or another target. No call is given for them. The list favours compounds with an active or inconclusive main result. Potencies come from curve fits of mixed quality, noted in brackets.

With `CCOC(=O)N1CCN(C(=O)CCl)CC1`, the AC50 under setting [1] is 35.5 µM [falling, single point]. `Cc1ccnc(NC(=S)NC(=O)/C=C/c2ccco2)c1`: under setting [1], the AC50 was 9.2 µM [falling, partial curve].

Take `O=C(NCc1ccc(Cl)cc1)c1ccccc1Oc1ccccc1`: the AC50 under setting [1] is 35.5 µM [falling, single point].

Consider `Clc1c(-c2ccccc2)nnn1-c1ccccc1`, for which the AC50 under setting [1] was 3.66 µM [rising, partial curve, poor fit].

On to `Cc1ccc(/C=C/C(=O)Nc2nnc(C)s2)o1`, for which the AC50 under setting [1] was 0.82 µM [rising, partial curve, poor fit].

In the case of `Cc1cc(C)nc(SCC(=O)c2ccc(F)c(C)c2)n1`, the concentration at half-maximal activity (AC50) under setting [1] is 3.98 µM [rising, full curve, poor fit].

On to `COc1cccc2cc(C(=O)N3CCCCC3C)c(=O)oc12` (stereo unspecified), for which the AC50 under setting [1] was 29.1 µM [rising, single point]. Same read-out and setting: the figure for `O=C(CSc1ccccc1)Nc1ccc(N2CCOCC2)cc1` is 18.4 µM [rising, single point]; for `Cc1cc(C)c(N)c(C(=O)O)c1` it is 14.1 µM [rising, single point]. The same measure, in the same setting: the figure for `CC(C)/C=N/Nc1nc2c(c(=O)n(C)c(=O)n2C)n1C` is 35.5 µM [falling, single point]. Regarding `COC(=O)N/N=C/c1cccc(OCCSc2ccc(Cl)cc2)c1`, the AC50 under setting [1] is 29.1 µM [falling, single point]. Regarding `CC12CNCC(C)(CN(C3(O)C(=O)Nc4ccc(Br)cc43)C1)C2=O` (stereo unspecified), under setting [2], the AC50 was 25.1 µM [falling, single point].

As to `O=C(Nc1ccc2c(c1)CCC2)Nc1ccccc1F`, the AC50 under setting [1] is 2.24 µM [falling, partial curve]. The same measure, in the same setting: the figure for `O=C(NC1CCN(Cc2ccccc2)CC1)c1ccc2c(c1)OCCCO2` is 22.4 µM [rising, single point]; for `O=C(NCCCCc1ccccc1)c1ccccc1Cl` it is 7.08 µM [falling, partial curve, poor fit]; for `COC(=O)c1cc(NC(=O)COC(=O)CCc2nc3ccccc3c(=O)[nH]2)cc(C(=O)OC)c1` it is 0.731 µM [rising, full curve, poor fit]. Still for that read-out and setting: the figure for `O=C(NCC1CCCO1)c1cccc(Oc2ccc([N+](=O)[O-])cc2Cl)c1` (stereo unspecified) is 5.62 µM [falling, partial curve]; for `COc1cccc(-c2ncc3ccccc3c2COC(=O)c2cccs2)c1` it is 5.17 µM [falling, partial curve]; for `CCOC(=O)CC(NC(=O)c1ccco1)c1ccc(C)cc1` (stereo unspecified) it is 35.5 µM [rising, single point]. Same read-out and setting: the figure for `O=C(CNC(=O)c1cccs1)c1ccc(Cl)cc1` is 11.2 µM [falling, partial curve, poor fit]; for `C#CCOCCOCCOCCNc1nc(N2CCN(C(=O)CCCCCCCCCCNC(=O)[C@@H](CCC(=O)O)n3cc(CCCCCN)nn3)CC2)nc(N2CCN(C(=O)CCCCCCCCCCNC(=O)[C@H](CO)n3cc(CCCSC)nn3)CC2)n1` it is 4.11 µM [rising, partial curve, poor fit]. Regarding `Cn1c(=O)n(C)c2cc(NS(=O)(=O)c3ccc4c(c3)CCCC4)ccc21`, the AC50 is 20.6 µM [rising, partial curve] under setting [1] and 20.6 µM [falling, single point] under setting [2]. In the case of `O=C(c1cccc(Br)c1)c1conc1C(=O)c1ccco1`, the AC50 under setting [1] is 29.1 µM [rising, single point].

With `CCOC(=O)c1ccc(NC(=O)CN2CCN(c3ccccc3)CC2)cc1`, under setting [1], the AC50 was 0.146 µM [rising, full curve, poor fit]. On to `COc1ccc2cc(S(=O)(=O)N3CCCC3)ccc2c1`, for which the AC50 under setting [1] was 35.5 µM [rising, single point].

For `COc1ccc(OC)c(-c2cc(C(=O)NCCCn3ccnc3)no2)c1`, under setting [2], the half-maximal activity concentration (AC50) was 11.2 µM [falling, partial curve, poor fit]. For `O=C1NC(=O)C(c2ccccc2[N+](=O)[O-])=C1Nc1ccc(O)c(Cl)c1`, the AC50 under setting [1] was 11.2 µM [falling, single point]. Same read-out and setting: the figure for `O=C(/C=C/c1ccco1)Nc1scc(-c2ccccc2)c1C(=O)O` is 10 µM [falling, partial curve]; for `CC(C)(C)C(=O)Nc1ccc(S(=O)(=O)Nc2nccs2)cc1` it is 11.2 µM [rising, single point]; for `COc1cccc(NC(=O)CSc2nc(C3CC3)nc3ccccc23)c1` it is 2 µM [falling, partial curve, poor fit]. On the same count and under the same terms, in the case of `O=C(Nc1ccc2c(c1)nc1n2CCOC1)c1ccccc1` it was 10 µM [falling, partial curve, poor fit]; in that of `Cc1ccc(N(CC(=O)NCCc2ccc(F)cc2)S(=O)(=O)c2ccc(Cl)c([N+](=O)[O-])c2)c(C)c1`, 20.6 µM [falling, single point]. Same read-out and setting: the figure for `O=C1CC(N2CCN(S(=O)(=O)c3ccccc3)CC2)C(=O)N1c1ccccc1` (stereo unspecified) is 6.31 µM [falling, full curve, poor fit]. As for `O=C(CSc1nc2ccccc2c(=O)n1-c1ccccc1)N/N=C/C=C/c1ccccc1[N+](=O)[O-]`, the AC50 under setting [1] is 11.2 µM [rising, partial curve, poor fit].

As to `COc1ccc(OC)c(C(=O)CSc2nnc(Cc3cccs3)n2CCc2ccccc2)c1`, the AC50 under setting [1] is 11.2 µM [falling, partial curve].

With `COCCN(CCOC)C(=O)c1cc2c(=O)n3ccccc3nc2s1`, under setting [1], the AC50 is 3.55 µM [rising, full curve]. On the same count and under the same terms, the figure for `Cc1cc(C(=O)CSc2nc(N)cc(=O)[nH]2)c(C)n1CCc1ccc(Cl)cc1` is 8.2 µM [rising, partial curve]; for `O=C(CC1CCCCC1)NCc1ccccc1` it is 0.224 µM [rising, full curve, poor fit]. As for `CCOc1ccc(-c2nc(CSCC(=O)N3CCN(c4cccc(C(F)(F)F)c4)CC3)c(C)o2)cc1`, under setting [1], the AC50 was 3.55 µM [rising, partial curve].

Consider `C=CCN1C(=O)N/C(=C/c2ccc(N3CCOCC3)o2)C1=O`, for which, under setting [1], the AC50 was 7.31 µM [falling, partial curve].

As to `Cc1cc(C)nc(SCc2ccc(C(=O)N/N=C3\CCCC(=O)C3)cc2)n1`, under setting [2], the AC50 was 8.91 µM [falling, partial curve, poor fit]. For `Cc1[nH]n(-c2ccccc2)c(=O)c1C(=O)c1ccc(Cl)cc1`, under setting [1], the AC50 was 15.8 µM [falling, partial curve]. Still for that read-out and setting: the figure for `COC(=O)Cn1c(O)c(N=NC(=O)c2ccc3c(c2)OCO3)c2ccccc21` is 22.4 µM [falling, single point]. Take `c1ccc(-c2nc3c([nH]2)CCc2nonc2-3)cc1`: the AC50 runs as follows: under setting [1], 1.78 µM [falling, partial curve, poor fit]; under setting [2], 4.47 µM [rising, full curve, poor fit]. For `CCN(CC)CCN1C(=O)/C(=C\c2ccc(Cl)c([N+](=O)[O-])c2)SC1=Nc1ccc(OC)cc1`, the AC50 under setting [1] is 35.5 µM [falling, partial curve, poor fit]. `CCn1c(=O)oc2cc(NC(=O)CCl)ccc21`: the AC50 under setting [1] is 25.1 µM [falling, single point]. On to `O=C(c1cc(Br)c(Br)s1)N1CCN(C/C=C/c2ccccc2)CC1`, for which, under setting [1], the AC50 was 25.9 µM [falling, single point]. The same measure, in the same setting: in the case of `CC1=C/C(=N\NC(=O)c2ccccc2)CC1` it was 14.6 µM [falling, partial curve]; in that of `Cc1csc(NC(=O)C2CC(=O)N(c3ccc(C)c(C)c3)C2)n1` (stereo unspecified), 8.91 µM [falling, partial curve, poor fit]. As for `CC(C)(C)c1ccc(C(=O)N/C(N)=N/c2nc3ccccc3o2)cc1`, the AC50 under setting [1] was 16.4 µM [rising, single point]. The same measure, in the same setting: in the case of `CCN1CCN(C(=O)c2nn(-c3ccc(C)cc3)c(=O)c3c2c2ccccc2n3C)CC1` it was 29.1 µM [rising, single point]; in that of `Cc1nc(C)c(-c2csc(Nc3ccc(F)cc3)n2)s1`, 5.62 µM [rising, partial curve, poor fit].

Turning to `OC1CCCN(Cc2nc(Cc3ccccc3Cl)no2)C1` (stereo unspecified), the AC50 under setting [1] was 35.5 µM [rising, single point]. Same read-out and setting: in the case of `COc1ccc2c(CCNC(N)=S)c[nH]c2c1` it was 5.62 µM [rising, single point]. On the same count and under the same terms, the figure for `O=C(Cc1n[nH]c(=O)c2ccccc12)OCC(=O)c1ccccc1` is 2.31 µM [rising, partial curve]; for `NS(=O)(=O)c1ccc(NC(=O)CSc2n[nH]c(=O)n2C2CC2)cc1` it is 25.9 µM [rising, partial curve, poor fit]; for `O=C(NCCN1CCN(C(=O)Nc2ccccc2)CC1)Nc1ccccc1` it is 23.1 µM [falling, single point].

In the case of `CCOc1ccc(C(=O)N/N=C/c2c(C)[nH]c(=O)[nH]c2=O)cc1`, the AC50 under setting [1] is 10 µM [falling, partial curve, poor fit]. As for `O=C(Cc1n[nH]c(=O)c2ccccc12)OCC(=O)N(Cc1ccccc1)Cc1ccccc1`, under setting [1], the AC50 was 35.5 µM [falling, single point]. On the same count and under the same terms, the figure for `CCc1cccc(C)c1NC(=O)C1CCCN1C(=O)NCc1ccccc1` (stereo unspecified) is 0.501 µM [rising, full curve, poor fit]; for `CC(C)(C)SCCNS(=O)(=O)c1ccccc1` it is 0.708 µM [falling, partial curve, poor fit]; for `COc1ccc(C2=NS(=O)(=O)N(C)C(C(=O)Nc3cc(C)ccc3O)=C2)cc1OC` it is 6.31 µM [falling, partial curve, poor fit]. Still for that read-out and setting: the figure for `CCCCCCn1c(C(C)O)nc2ccccc21` (stereo unspecified) is 20.6 µM [falling, single point]; for `CC(=O)Nc1ccc(S(=O)(=O)c2cc(O)ccc2O)cc1` it is 22.4 µM [rising, partial curve, poor fit].

The AC50 is the midpoint of the concentration-response curve, whichever way the signal moves.
